Two substances from patent US20090036353 (published 2009) can be followed below.

This series can be described thus: peptide synthesis.

In the case of “B29K(N(eps)-N-tert-butyloxycarbonyl-O-tert-butyl-serinyl) desB30 insulin”, the step yield (late stage modification step) turned out to be 80%.
As for “B29K(N(eps)-{3-[2-(1,3-Bis[2-(2-{2-[2-(2-methoxyethoxy)ethoxy]acetylamino}ethoxy)ethoxy]-propan-2-yloxy)acetylamino]propanoyl}) desB30 Human Insulin”, where the note is “conjugation step, UV 214 nm”, the “final HPLC purity” value amounted to 100.0% pure.
